Measurements reported in PubChem BioAssay AID504791 (Drosophila RNAi Screening Center, 2011).
In all, the deposit lists about 23,000 reagents; this is an unselected part of those with a known target gene and a result. Of all reagents, 199 (0.86%) are marked active. 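Plate-scaled ratios behind the calls are not deposited; printed light signals are raw; many rows marked increased or decreased are still called inactive.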 Reagents against one gene are numbered here. Not stated in the record: the direction of the score.

Purpose: 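Genes whose knock-down strengthens or weakens small-RNA reporter silencing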 (primary screen)
System: Drosophila S2-derived reporter cells
Reagent: long dsRNA against Drosophila genes, about 150-250 ng dsRNA per well (siRNA assay); about 80-120 ng (miRNA assay)
Time to read-out: about 5 days (siRNA assay); about 4 days (miRNA assay)
Challenge: copper sulfate induction of reporters: 25 µM (siRNA assay); 200 mM stated (miRNA assay), 1-2 days before reading
Measured: 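Dual luciferase assay: Renilla to firefly signal ratio in each well, scaled to the mean ratio of its plate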
Call rule: 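First-pass picks had plate-scaled ratios over 1.5 for the siRNA assay, over 1.6 for the miRNA assay, or under 0.6; two distinct dsRNAs had to score alike on retest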

stable siRNA reporter change | miRNA reporter change | stable assay Renilla, run 1 (luminescence) | stable assay firefly, run 1 (luminescence) | Outcome | target gene | reagent no.
– | – | 4563 | 3.37e5 | inactive | PLCXD | 1
– | – | 12225 | 4.28e5 | inactive | nSyb | 1
– | – | 6062 | 4.35e5 | inactive | Ttc1 | 1
– | – | 3776 | 3.76e5 | inactive | Ttc1 | 2
– | – | 12704 | 1.00e6 | inactive | CG17292 | 1
– | – | 5835 | 2.48e5 | inactive | CG17742 (retired record) | 1
reporter ratio raised past the hit cutoff | – | 7587 | 2.39e5 | inactive | CG7079 | 1
– | – | 7138 | 5.02e5 | inactive | CG13102 | 1
– | – | 6820 | 4.46e5 | inactive | SmydA-2 | 1
– | – | 7030 | 3.39e5 | inactive | CG6980 | 1
– | – | 7491 | 4.21e5 | inactive | Nmnat | 1
– | – | 6371 | 3.72e5 | inactive | CG31259 | 1
– | – | 7406 | 4.30e5 | inactive | RASSF8 | 1
– | – | 4123 | 4.27e5 | inactive | CCHa2 | 1
– | – | 6184 | 4.88e5 | inactive | NAAT1 | 1
– | – | 6771 | 3.87e5 | inactive | CG2224 | 1
– | – | 8485 | 4.33e5 | inactive | CG3281 | 1
– | – | 52510 | 1.41e6 | inactive | CG10194 | 1
– | – | 6450 | 3.13e5 | inactive | Cc2d2a | 1
– | – | 6163 | 2.88e5 | inactive | Cc2d2a | 2
reporter ratio raised past the hit cutoff | – | 1475 | 74601 | inactive | CG3040 | 1
– | – | 7862 | 2.76e5 | inactive | slif | 1
– | – | 6595 | 3.16e5 | inactive | CG4627 | 1
– | – | 5343 | 3.46e5 | inactive | mRpL14 | 1
– | – | 4835 | 4.01e5 | inactive | cac | 1
– | – | 7448 | 4.04e5 | inactive | cac | 2
– | – | 7378 | 3.55e5 | inactive | CG13064 | 1
– | – | 6886 | 3.08e5 | inactive | Galphaf | 1
– | – | 7375 | 3.42e5 | inactive | CG34393 | 1
– | – | 7747 | 3.59e5 | inactive | CG34393 | 2
– | – | 7159 | 3.70e5 | inactive | CG10514 | 1
– | – | 5450 | 4.71e5 | inactive | Muc11A | 1
– | – | 9045 | 4.51e5 | inactive | CG4098 | 1
– | – | 7199 | 4.94e5 | inactive | rdog | 1
– | – | 6706 | 3.63e5 | inactive | CG9682 | 1
– | – | 7534 | 4.63e5 | inactive | CG7130 | 1
– | – | 4475 | 4.21e5 | inactive | Takl1 | 1
– | – | 8565 | 5.12e5 | inactive | CG4362 | 1
– | – | 7439 | 3.16e5 | inactive | fd102C | 1
– | – | 6558 | 4.16e5 | inactive | CG18586 | 1
reporter ratio lowered past the hit cutoff | reporter ratio raised past the hit cutoff | 7419 | 2.27e6 | active | PPP1R15 | 1
– | reporter ratio raised past the hit cutoff | – | – | active | PPP1R15 | 2
– | – | 6040 | 4.25e5 | inactive | dco | 1
– | – | 11264 | 8.42e5 | inactive | Hrs | 1
– | – | 7238 | 3.44e5 | inactive | Csl4 | 1
– | – | 5602 | 4.23e5 | inactive | Csl4 | 2
– | – | 4292 | 3.67e5 | inactive | CG33177 | 1
– | – | 38000 | 3.14e5 | inactive | Sur | 1
– | – | 7054 | 2.95e5 | inactive | Adsl | 1
– | – | 4835 | 2.56e5 | inactive | kek5 | 1
– | – | 5916 | 4.04e5 | inactive | CG31516 | 1
– | – | 4827 | 3.54e5 | inactive | eas | 1
– | – | 4827 | 1.87e5 | inactive | CG14441 | 1
– | – | 9258 | 3.63e5 | inactive | CG10184 | 1
– | – | 7031 | 3.66e5 | inactive | CG9372 | 1
– | – | 88793 | 3.66e5 | inactive | sktl | 1
– | – | 1.05e5 | 1.37e5 | inactive | slp1 | 1
